Laboratory results: paper PMC5996148
The list shows a part of the results. For some assays here: Construct or isoform of the protein are uncertain.

How the values were obtained:
Assay in all cases: protein microarray (ProtoArray v5.0), streptavidin-Alexa Fluor 647
Conditions in all cases: 3'-biotin; 20 mM Tris (pH 7.5), 5 mM MgCl2, 100 mM KCl, 0.1% Tween-20, A/T-rich and random oligonucleotide blockers; temperature not stated; high values mean tight binding
[1] = test system: protein for MGC:16479 (human)
[2] = test system: protein for MGC:19786 (human)
[3] = test system: rC (human)
[4] = test system: rRNA-processing protein FCF1 homolog (human)
[5] = test system: tRNA-splicing endonuclease subunit Sen15 (human)
[6] = test system: 14-3-3 protein sigma (human)
[7] = test system: 26S proteasome non-ATPase regulatory subunit 7 (human)
[8] = test system: 3-hydroxyanthranilate 3,4-dioxygenase (human)
[9] = test system: 40S ribosomal protein SA (human)
[10] = test system: 5 (human)
[11] = test system: 60S ribosomal protein L29 (human)
[12] = test system: A-kinase anchor protein 14 (human)
[13] = test system: A.T hook DNA-binding motif-containing protein 1 (human)
[14] = test system: AATF (human)
[15] = test system: ABHD4 (human)
[16] = test system: ACAD9 (human)
[17] = biological target: T1, ACBD6 (UniProt Q9BR61)
T1 sequence: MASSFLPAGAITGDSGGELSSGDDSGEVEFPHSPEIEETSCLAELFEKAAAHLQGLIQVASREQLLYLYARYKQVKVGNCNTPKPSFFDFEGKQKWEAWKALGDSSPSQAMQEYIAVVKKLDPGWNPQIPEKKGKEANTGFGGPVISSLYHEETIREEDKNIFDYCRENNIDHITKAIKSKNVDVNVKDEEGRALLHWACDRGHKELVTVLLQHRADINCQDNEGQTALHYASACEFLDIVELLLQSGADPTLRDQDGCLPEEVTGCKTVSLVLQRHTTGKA

[18] = test system: ACP1 (human)
[19] = test system: ACPP (human)
[20] = test system: ACSL5 (human)

| Sequence | binding signal [1] [z-score] | binding signal [2] [z-score] | binding signal [3] [z-score] | binding signal [4] [z-score] | binding signal [5] [z-score] | binding signal [6] [z-score] | binding signal [7] [z-score] | binding signal [8] [z-score] | binding signal [9] [z-score] | binding signal [10] [z-score] | binding signal [11] [z-score] | binding signal [12] [z-score] | binding signal [13] [z-score] | binding signal [14] [z-score] | binding signal [15] [z-score] | binding signal [16] [z-score] | binding signal [17] [z-score] | binding signal [18] [z-score] | binding signal [19] [z-score] | binding signal [20] [z-score] |
| --- | --- | --- | --- | --- | --- | --- | --- | --- | --- | --- | --- | --- | --- | --- | --- | --- | --- | --- | --- | --- |
| GGTGACAGGGGTATGGGGAGGGG [G4-2 biotinylated (Ct1)] | -0.383 | -0.402 | -0.372 | 4.28 | -0.359 |  |  |  |  |  |  |  |  |  |  |  |  |  |  |  |
| GGGGACAGGGGTATGGGGAGGGG [G4-3 biotinylated (CtG)] |  |  |  |  |  | -0.341 | -0.348 | -0.341 | -0.337 | -0.334 | 4.54 | -0.328 | -0.327 | -0.35 | -0.318 | -0.315 | -0.326 | -0.333 | -0.322 | -0.315 |
